Measurements from US20260158153A1 (priority 2021, published 2026).

Test: general procedure: solution-phase peptide synthesis; HATU / diisopropylethylamine
Conditions: conjugation step

Question: Which conjugation yield does the source give for “(2S,3S)-2,3-bis(2,5-dioxo-2,5-dihydro-1H-pyrrol-1-yl)-N1,N4-bis((S)-37-((2-((2-((2-((2-(((1S,9S)-9-ethyl-5-fluoro-9-hydroxy-4-methyl-10,13-dioxo-1,2,3,9,10,12,13,15-octahydrobenzo[de]pyrano[3′,4′:6,7]indolizino[1,2-b]quinolin-1-yl)amino)-2-oxoethyl)amino)-2-oxoethyl)amino)-2-oxoethyl)amino)-2-oxoethyl)carbamoyl)-31,39-dioxo-2,5,8,11,14,17,20,23,26,29-decaoxa-32,38-diazadotetracontan-42-yl)succinamide” here?
Answer: Its conjugation yield is 47% yield.

Question: With “(2S,3S)-2,3-bis(2,5-dioxo-2,5-dihydro-1H-pyrrol-1-yl)-N1,N4-bis((S)-37-(((4S,7S,10S,13S)-1-((S)-4-ethyl-8-fluoro-4-hydroxy-9-methoxy-3,14-dioxo-3,4,12,14-tetrahydro-1H-pyrano[3′,4′:6,7]indolizino[1,2-b]quinolin-11-yl)-4,7,10-trimethyl-3,6,9,12-tetraoxo-2,5,8,11-tetraazatetradecan-13-yl)carbamoyl)-31,39-dioxo-2,5,8,11,14,17,20,23,26,29-decaoxa-32,38-diazadotetracontan-42-yl)succinamide” as the substance, how does the conjugation yield read?
Answer: Its conjugation yield is 70% yield.

Question: For “(2S,3S)-2,3-bis(2,5-dioxo-2,5-dihydro-1H-pyrrol-1-yl)-N1,N4-bis((S)-37-(((S)-1-(((S)-1-(((S)-1-(((S)-1-(4-(((S)-4-ethyl-8-fluoro-4-hydroxy-9-methoxy-3,14-dioxo-3,4,12,14-tetrahydro-1H-pyrano[3′,4′:6,7]indolizino[1,2-b]quinolin-11-yl)methyl)piperazin-1-yl)-1-oxopropan-2-yl)amino)-1-oxopropan-2-yl)amino)-1-oxopropan-2-yl)amino)-1-oxopropan-2-yl)carbamoyl)-31,39-dioxo-2,5,8,11,14,17,20,23,26,29-decaoxa-32,38-diazadotetracontan-42-yl)succinamide”, which conjugation yield is on record?
Answer: Its conjugation yield is 71% yield.

Question: Which conjugation yield does the source give for “(2S,3S)-2,3-bis(2,5-dioxo-2,5-dihydro-1H-pyrrol-1-yl)-N1,N4-bis((S)-37-(((S)-1-(((S)-1-(((S)-1-(((S)-1-(((1S,9S)-9-ethyl-5-fluoro-9-hydroxy-4-methyl-10,13-dioxo-1,2,3,9,10,12,13,15-octahydrobenzo[de]pyrano[3′,4′:6,7]indolizino[1,2-b]quinolin-1-yl)amino)-1-oxopropan-2-yl)amino)-1-oxopropan-2-yl)amino)-1-oxopropan-2-yl)amino)-1-oxopropan-2-yl)carbamoyl)-31,39-dioxo-2,5,8,11,14,17,20,23,26,29-decaoxa-32,38-diazadotetracontan-42-yl)succinamide” here?
Answer: The conjugation yield was 67% yield.

Same assay, conditions: coupling step

Question: For “(1R, 3R)-1-(4-(((R)-5-amino-1-(3-((37S, 40S, 43S)-37-(4-(2, 5-dioxo-2, 5-dihydro-1H-pyrrol-1-yl)butanamido)-40-isopropyl-43-methyl-31, 38, 41-trioxo-2, 5, 8, 11, 14, 17, 20, 23, 26, 29-decaoxa-32, 39, 42-triazatetratetracontan-44-amido)-4-hydroxyphenyl)-5-oxopentan-2-yl)carbamoyl)thiazol-2-yl)-3-((2S, 3S)-2-(2-(dimethylamino)-2-methylpropanamido)-N, 3-dimethylpentanamido)-4-methylpentyl acetate”, which step yield is on record?
Answer: Its step yield is 93%.

Question: For “(2S,4R)-4-((tert-butoxycarbonyl)amino)-5-(3-((S)-37-(4-(2,5-dioxo-2,5-dihydro-1H-pyrrol-1-yl)butanamido)-31,38,43-trioxo-2,5,8,11,14,17,20,23,26,29-decaoxa-32,39,44-triazahexatetracontanamido)-4-hydroxyphenyl)-2-methylpentanoic acid”, which step yield is on record?
Answer: Its step yield is 50%.

Question: With “(2S, 4R)-4-(2-((6S, 9R, 11R)-6-((S)-sec-butyl)-9-isopropyl-2, 3, 3, 8-tetramethyl-4, 7, 13-trioxo-12-oxa-2, 5, 8-triazatetradecan-11-yl)thiazole-4-carboxamido)-5-(4-hydroxy-3-nitrophenyl)-2-methylpentanoic acid” as the substance, how does the step yield read?
Answer: Its step yield is 80%.

Same assay, conditions: late stage modification step

Question: With “1-(tert-butyl) 20-methyl (S, E)-4, 9, 12, 17-tetraoxo-10-(31-oxo-2, 5, 8, 11, 14, 17, 20, 23, 26, 29-decaoxa-32-azahexatriacontan-36-yl)-3, 8, 11, 16-tetraazaicos-18-enedioate” as the substance, how does the step yield read?
Answer: The step yield was 36%.

Question: For “2, 5-dioxopyrrolidin-1-yl (2S, 5S, 8S, 11S)-16-(2, 5-dioxo-2, 5-dihydro-1H-pyrrol-1-yl)-11-(3-methoxy-3-oxopropyl)-2, 5, 8-trimethyl-4, 7, 10, 13-tetraoxo-3, 6, 9, 12-tetraazahexadecanoate”, which step yield is on record?
Answer: The step yield was 100%.

Question: With “2, 5-dioxopyrrolidin-1-yl (S)-(S)-(S)-(37-(4-(2, 5-dioxo-2, 5-dihydro-1H-pyrrol-1-yl)butanamido)-31, 38-dioxo-2, 5, 8, 11, 14, 17, 20, 23, 26, 29-decaoxa-32, 39-diazatritetracontan-43-oyl)glycylglycylglycinate” as the substance, how does the step yield read?
Answer: Its step yield is 99%.

Question: With “(2S,4R)-4-(2-((6S,9R,11R)-9-isopropyl-2,3,3,8-tetramethyl-13-(4-nitrophenoxy)-4,7,13-trioxo-6-propyl-12-oxa-2,5,8-triazatridecan-11-yl)thiazole-4-carboxamido)-2-methyl-5-phenylpentanoic acid” as the substance, how does the step yield read?
Answer: Its step yield is 72%.

Question: Which step yield does the source give for “(2S,5S,8S,16S,17S,25S,28S,31S)-16,17-bis(2,5-dioxo-2,5-dihydro-1H-pyrrol-1-yl)-5,28-diisopropyl-2,31-dimethyl-4,7,10,15,18,23,26,29-octaoxo-” here?
Answer: The step yield was 50% yield.

Question: Which step yield does the source give for “(2S,5S,13S,14S,22S,25S)-13,14-bis(2,5-dioxo-2,5-dihydro-1H-pyrrol-1-yl)-2,25-diisopropyl-4,7,12,15,20,23-hexaoxo-5,22-bis(31-oxo-2,5,8,11,14,17,20,23,26,29-decaoxa-32-azahexatriacontan-36-yl)-3,6,11,16,21,24-hexaazahexacosanedioic acid” here?
Answer: Its step yield is 48% yield.

Question: Which step yield does the source give for “(2S,5S,13S,14S,22S,25S)-13,14-bis(2,5-dioxo-2,5-dihydro-1H-pyrrol-1-yl)-2,25-dimethyl-4,7,12,15,20,23-hexaoxo-5,22-bis(31-oxo-2,5,8,11,14,17,20,23,26,29-decaoxa-32-azahexatriacontan-36-yl)-3,6,11,16,21,24-hexaazahexacosanedioic acid” here?
Answer: The step yield was 100% yield.

Question: Which step yield does the source give for “(2S, 4R)-4-amino-5-(3-((6S, 9S, 12S, 15S)-6-(4-(2, 5-dioxo-2, 5-dihydro-1H-pyrrol-1-yl)butanamido)-9, 12, 15-trimethyl-3, 7, 10, 13-tetraoxo-2-oxa-8, 11, 14-triazahexadecan-16-amido)-4-hydroxyphenyl)-2-methylpentanoic acid” here?
Answer: Its step yield is 100%.

Question: Which step yield does the source give for “(2S, 4R)-4-amino-5-(3-((S)-37-(4-(2, 5-dioxo-2, 5-dihydro-1H-pyrrol-1-yl)butanamido)-31, 38, 43, 46-tetraoxo-2, 5, 8, 11, 14, 17, 20, 23, 26, 29-decaoxa-32, 39, 44, 47-tetraazanonatetracontan-49-amido)-4-hydroxyphenyl)-2-methylpentanoic acid” here?
Answer: Its step yield is 100%.
